Results are given in words; binding and its absence hold for the method and conditions named. In cells and extracts the contact can be indirect. Some entries that bind do so weakly or less than the wild type.
Target: Flag-Cul4a (UniProt Q13619)
Test: co-IP; lysate of H9c2 cells transfected with Flag-Cul4a (flag lysis buffer); anti-Flag antibody with Protein A/G magnetic beads overnight, anti-PARP1 western blot; cells untreated or treated with 200 μM H2O2 for 2 h

Amino acid sequences for entries named in this document (tags omitted).
UniProt Q13619: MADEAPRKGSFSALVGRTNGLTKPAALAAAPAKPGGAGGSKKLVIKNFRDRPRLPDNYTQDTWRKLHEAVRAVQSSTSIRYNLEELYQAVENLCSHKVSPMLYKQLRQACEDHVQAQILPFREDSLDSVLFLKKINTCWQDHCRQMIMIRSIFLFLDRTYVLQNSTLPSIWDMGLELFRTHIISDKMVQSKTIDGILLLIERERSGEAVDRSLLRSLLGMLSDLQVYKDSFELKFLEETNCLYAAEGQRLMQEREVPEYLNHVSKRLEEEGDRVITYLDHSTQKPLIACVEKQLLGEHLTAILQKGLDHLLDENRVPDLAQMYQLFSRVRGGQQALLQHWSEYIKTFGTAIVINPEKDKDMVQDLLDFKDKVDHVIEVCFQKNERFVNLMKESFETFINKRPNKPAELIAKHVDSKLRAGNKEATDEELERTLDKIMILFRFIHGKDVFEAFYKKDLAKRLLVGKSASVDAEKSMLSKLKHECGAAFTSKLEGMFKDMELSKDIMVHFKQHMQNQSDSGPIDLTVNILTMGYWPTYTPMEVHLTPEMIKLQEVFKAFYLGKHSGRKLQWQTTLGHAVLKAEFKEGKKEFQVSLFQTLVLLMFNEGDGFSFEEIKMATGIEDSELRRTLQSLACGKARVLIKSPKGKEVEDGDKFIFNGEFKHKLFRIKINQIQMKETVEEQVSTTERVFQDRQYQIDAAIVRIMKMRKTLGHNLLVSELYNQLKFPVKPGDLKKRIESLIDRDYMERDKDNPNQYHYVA
UniProt P27008: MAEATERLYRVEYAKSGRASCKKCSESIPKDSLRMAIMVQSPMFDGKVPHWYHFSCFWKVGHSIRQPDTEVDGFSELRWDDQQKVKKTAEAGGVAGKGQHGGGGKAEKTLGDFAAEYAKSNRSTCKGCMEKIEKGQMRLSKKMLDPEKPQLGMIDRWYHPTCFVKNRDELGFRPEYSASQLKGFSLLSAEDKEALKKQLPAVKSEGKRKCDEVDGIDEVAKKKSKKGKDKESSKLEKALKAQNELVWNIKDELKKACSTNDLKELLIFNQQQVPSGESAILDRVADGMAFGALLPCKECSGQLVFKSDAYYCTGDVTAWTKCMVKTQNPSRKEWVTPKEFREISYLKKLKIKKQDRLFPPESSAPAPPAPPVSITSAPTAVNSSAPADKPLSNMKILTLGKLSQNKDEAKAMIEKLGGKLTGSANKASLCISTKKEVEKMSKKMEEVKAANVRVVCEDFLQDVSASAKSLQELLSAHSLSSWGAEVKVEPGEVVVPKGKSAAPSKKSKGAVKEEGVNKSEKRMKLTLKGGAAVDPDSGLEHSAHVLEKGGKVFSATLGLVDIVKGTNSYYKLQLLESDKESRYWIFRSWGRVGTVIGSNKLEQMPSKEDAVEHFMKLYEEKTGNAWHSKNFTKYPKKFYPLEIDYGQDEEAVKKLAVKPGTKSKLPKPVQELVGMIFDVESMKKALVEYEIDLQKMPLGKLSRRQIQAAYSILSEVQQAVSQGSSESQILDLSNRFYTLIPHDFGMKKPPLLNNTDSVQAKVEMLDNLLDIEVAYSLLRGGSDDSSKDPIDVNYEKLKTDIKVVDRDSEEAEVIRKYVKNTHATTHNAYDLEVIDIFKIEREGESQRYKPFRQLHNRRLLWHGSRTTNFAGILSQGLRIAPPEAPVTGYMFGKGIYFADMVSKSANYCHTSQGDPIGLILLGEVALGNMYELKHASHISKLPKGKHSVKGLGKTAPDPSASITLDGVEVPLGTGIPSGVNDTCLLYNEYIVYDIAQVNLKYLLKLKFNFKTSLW

poly (ADP-ribose) polymerase-1 (from UniProt P27008 1-1014)
binding: binds

— article PMC6501127
